Source: the supplement of paper PMC10849652
This is one part of the list. Residues, ends and D or L forms follow the SMILES beside them. *: point of attachment. Cbz = O=C(OCc1ccccc1)*

Chains of the proteins cited; added tags and fusions are not shown. Lines headed by an entry give the natural chain unless they say otherwise; changes in a name come on top.
UniProt A5PLN9: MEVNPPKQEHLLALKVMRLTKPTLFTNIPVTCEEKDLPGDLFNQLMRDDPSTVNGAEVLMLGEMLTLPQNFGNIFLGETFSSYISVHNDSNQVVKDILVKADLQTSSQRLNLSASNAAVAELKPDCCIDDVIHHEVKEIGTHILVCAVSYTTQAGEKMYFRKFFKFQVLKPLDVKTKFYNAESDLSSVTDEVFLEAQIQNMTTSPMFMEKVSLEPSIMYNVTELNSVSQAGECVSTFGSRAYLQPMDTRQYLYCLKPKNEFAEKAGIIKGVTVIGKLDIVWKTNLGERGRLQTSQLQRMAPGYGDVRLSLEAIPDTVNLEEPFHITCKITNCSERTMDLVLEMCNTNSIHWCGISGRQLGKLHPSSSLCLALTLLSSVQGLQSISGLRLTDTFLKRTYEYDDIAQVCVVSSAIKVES
UniProt P07951, whole entry, looked up: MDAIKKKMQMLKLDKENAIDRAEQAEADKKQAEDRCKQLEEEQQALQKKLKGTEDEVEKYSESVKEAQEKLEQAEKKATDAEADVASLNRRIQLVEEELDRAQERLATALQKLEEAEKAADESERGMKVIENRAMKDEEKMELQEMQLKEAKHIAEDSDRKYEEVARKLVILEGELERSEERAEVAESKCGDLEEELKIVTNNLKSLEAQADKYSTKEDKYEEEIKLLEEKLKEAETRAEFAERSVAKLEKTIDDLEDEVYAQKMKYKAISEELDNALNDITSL
UniProt Q92973: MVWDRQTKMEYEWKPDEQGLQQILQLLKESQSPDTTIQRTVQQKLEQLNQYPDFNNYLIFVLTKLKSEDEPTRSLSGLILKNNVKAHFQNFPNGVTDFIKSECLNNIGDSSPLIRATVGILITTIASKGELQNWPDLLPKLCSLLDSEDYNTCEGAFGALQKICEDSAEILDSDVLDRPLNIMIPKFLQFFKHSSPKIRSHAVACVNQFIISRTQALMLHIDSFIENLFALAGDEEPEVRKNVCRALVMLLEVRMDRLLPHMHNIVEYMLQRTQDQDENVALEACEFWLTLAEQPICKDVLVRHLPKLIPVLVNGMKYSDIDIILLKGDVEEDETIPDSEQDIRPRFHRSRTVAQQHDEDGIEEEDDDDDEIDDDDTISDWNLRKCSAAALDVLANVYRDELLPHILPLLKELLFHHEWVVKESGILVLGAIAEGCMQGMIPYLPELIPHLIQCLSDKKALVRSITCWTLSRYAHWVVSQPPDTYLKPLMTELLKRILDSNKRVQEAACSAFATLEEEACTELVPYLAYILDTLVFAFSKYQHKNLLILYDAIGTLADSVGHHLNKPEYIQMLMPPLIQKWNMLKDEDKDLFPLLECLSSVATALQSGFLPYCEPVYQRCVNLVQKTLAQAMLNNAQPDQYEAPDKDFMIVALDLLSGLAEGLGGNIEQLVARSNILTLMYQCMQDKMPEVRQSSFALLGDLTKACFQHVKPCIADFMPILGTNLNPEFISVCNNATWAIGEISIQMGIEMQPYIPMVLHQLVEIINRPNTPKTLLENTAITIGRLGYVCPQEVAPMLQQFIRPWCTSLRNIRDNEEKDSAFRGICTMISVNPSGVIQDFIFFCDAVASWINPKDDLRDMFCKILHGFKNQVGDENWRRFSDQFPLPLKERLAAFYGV
UniProt Q13049: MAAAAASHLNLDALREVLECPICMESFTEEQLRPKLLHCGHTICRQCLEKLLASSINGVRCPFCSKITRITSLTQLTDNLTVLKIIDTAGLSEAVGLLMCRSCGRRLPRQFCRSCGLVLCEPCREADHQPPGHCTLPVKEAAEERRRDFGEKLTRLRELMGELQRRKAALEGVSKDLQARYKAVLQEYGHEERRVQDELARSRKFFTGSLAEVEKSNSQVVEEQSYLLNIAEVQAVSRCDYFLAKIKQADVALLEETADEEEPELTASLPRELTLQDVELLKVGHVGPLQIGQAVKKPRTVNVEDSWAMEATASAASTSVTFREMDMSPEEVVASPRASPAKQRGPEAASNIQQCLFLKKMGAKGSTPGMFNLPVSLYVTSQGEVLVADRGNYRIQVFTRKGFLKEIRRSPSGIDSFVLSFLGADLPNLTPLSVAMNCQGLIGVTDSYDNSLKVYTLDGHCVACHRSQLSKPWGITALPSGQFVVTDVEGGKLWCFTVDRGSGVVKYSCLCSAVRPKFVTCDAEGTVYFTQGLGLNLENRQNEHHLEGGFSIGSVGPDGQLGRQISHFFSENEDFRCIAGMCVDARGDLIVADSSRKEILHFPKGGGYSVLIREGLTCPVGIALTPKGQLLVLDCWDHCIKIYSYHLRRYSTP
UniProt P28908: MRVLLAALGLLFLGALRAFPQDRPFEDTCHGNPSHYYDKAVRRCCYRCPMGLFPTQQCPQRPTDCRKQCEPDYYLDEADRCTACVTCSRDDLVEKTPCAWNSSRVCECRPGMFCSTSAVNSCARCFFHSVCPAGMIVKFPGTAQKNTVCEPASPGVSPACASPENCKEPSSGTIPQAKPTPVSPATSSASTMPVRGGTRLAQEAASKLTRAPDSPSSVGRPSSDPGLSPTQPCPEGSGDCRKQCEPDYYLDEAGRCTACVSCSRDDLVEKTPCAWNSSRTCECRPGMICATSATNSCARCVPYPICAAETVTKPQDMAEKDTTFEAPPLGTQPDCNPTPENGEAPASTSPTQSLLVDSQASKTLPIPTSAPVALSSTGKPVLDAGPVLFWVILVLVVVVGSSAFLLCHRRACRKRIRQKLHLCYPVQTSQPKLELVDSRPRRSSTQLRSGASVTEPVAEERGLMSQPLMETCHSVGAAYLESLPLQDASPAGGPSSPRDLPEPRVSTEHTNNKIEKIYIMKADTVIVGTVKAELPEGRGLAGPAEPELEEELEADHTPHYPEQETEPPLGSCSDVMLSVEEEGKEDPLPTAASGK
UniProt Q13263: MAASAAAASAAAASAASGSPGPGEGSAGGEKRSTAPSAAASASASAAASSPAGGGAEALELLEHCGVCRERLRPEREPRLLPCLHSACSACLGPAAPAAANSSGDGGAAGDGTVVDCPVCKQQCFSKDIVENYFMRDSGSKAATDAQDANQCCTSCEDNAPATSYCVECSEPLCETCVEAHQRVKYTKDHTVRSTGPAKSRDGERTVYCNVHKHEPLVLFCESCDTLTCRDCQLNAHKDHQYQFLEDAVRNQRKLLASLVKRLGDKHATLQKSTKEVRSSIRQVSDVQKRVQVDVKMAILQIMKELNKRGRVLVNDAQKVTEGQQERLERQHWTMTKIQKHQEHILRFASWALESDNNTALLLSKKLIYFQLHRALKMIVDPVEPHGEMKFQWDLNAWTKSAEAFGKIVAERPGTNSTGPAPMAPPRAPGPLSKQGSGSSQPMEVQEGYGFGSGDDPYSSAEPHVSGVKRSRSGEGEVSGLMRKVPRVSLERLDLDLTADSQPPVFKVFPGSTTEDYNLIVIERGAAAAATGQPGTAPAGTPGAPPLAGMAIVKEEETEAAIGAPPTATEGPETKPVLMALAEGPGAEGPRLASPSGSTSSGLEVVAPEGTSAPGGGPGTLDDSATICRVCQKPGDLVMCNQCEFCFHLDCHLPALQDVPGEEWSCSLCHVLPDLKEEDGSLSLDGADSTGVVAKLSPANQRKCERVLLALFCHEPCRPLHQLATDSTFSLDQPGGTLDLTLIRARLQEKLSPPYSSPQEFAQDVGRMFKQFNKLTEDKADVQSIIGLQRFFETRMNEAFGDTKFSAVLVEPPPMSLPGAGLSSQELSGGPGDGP
UniProt Q12931: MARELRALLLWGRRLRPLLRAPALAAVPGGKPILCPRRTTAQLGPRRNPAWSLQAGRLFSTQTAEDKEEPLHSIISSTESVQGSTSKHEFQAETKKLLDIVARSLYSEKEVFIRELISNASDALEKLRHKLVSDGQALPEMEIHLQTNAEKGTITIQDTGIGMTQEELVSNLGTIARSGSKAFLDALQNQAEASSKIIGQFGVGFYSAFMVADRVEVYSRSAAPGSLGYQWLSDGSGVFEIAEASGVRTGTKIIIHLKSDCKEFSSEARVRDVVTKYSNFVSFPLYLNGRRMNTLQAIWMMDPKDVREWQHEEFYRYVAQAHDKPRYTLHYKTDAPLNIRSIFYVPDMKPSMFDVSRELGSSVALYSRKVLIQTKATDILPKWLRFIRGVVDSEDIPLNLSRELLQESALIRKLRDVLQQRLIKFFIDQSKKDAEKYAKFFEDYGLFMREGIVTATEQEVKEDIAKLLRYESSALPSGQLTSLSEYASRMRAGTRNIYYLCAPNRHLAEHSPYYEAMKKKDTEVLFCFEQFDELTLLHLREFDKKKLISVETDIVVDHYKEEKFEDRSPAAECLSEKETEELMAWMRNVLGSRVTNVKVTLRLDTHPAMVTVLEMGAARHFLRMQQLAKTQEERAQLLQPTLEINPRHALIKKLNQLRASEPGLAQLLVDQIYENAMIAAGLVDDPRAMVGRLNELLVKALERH
UniProt P09493, whole entry, looked up: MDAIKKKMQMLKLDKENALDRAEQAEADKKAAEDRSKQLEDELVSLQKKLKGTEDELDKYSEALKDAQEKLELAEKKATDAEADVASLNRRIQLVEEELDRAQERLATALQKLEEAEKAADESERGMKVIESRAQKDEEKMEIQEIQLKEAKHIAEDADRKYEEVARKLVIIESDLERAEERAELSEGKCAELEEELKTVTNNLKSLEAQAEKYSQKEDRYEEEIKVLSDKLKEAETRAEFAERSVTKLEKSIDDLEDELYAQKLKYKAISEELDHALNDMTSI
UniProt Q9UPQ9, whole entry, looked up: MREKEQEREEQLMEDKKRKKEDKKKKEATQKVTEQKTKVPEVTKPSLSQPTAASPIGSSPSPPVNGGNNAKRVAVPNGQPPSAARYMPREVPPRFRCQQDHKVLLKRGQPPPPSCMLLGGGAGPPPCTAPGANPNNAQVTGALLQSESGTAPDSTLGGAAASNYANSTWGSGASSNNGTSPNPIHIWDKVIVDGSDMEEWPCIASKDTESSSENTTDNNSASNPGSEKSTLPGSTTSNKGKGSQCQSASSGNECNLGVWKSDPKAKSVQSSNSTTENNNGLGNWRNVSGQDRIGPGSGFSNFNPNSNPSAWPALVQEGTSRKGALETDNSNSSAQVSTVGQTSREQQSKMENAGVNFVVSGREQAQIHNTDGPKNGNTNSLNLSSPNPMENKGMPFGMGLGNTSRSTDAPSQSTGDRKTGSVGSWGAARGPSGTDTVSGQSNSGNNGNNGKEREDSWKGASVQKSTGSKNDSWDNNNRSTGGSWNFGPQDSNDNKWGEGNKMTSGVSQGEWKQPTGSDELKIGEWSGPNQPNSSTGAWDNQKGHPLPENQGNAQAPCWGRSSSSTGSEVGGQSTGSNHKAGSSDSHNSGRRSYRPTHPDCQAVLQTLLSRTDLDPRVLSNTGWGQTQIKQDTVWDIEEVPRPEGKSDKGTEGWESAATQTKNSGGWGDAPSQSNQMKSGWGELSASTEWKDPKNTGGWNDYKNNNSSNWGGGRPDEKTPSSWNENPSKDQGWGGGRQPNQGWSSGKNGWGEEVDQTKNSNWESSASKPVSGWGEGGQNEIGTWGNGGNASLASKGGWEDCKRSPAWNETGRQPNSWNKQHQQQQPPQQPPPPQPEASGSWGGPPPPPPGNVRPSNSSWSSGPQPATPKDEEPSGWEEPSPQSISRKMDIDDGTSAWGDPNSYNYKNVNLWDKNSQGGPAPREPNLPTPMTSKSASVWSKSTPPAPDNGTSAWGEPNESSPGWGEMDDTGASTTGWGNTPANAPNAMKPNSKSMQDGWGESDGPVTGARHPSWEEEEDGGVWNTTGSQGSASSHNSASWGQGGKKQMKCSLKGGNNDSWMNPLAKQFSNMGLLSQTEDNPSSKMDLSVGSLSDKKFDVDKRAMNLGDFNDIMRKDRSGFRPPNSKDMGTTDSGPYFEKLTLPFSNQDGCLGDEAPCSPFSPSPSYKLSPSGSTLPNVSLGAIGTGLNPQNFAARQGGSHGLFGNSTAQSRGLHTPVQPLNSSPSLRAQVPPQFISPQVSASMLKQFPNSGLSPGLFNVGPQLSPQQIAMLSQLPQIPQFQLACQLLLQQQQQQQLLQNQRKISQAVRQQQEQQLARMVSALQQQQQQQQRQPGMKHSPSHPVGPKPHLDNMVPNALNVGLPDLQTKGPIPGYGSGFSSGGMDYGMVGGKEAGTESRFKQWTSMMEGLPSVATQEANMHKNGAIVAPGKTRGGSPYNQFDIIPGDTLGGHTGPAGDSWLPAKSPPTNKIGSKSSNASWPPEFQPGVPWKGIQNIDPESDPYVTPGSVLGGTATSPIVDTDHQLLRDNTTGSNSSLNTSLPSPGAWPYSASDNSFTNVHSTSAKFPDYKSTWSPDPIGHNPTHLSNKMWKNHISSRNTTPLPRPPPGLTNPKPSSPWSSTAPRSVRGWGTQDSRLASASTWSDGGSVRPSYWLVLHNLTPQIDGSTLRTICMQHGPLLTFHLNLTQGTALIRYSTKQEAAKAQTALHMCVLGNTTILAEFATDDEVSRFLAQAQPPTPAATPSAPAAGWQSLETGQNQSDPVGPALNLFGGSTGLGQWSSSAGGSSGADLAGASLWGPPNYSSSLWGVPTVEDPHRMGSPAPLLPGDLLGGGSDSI

Key:
Assay in all cases: log2 fold change, soluble protein after heating vs DMSO (PISA); higher = thermal stabilisation; K562 cells, 10 uM, 30 min; active = over 0.2 and 3.5 SD of the protein, either way, in both replicates (recomputed)
[1] = compound: C#Cc1cccc(Nc2ncnc3cc(OCCOC)c(OCCOC)cc23)c1 [erlotinib]
Summary of the method: (§1)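 Thermal stability values are relative to control samples and come from duplicates. They are expressed as log2 fold changes. For measurement, K562 cells (2×10^6 cells/mL) received 10 μM compound for 30 min, and aliquots were heated for 3 min over 48°C-58°C, pooled, and extracted at 4°C in PBS with 0.5% NP-40. Soluble protein, the supernatant after 21,000xg for 90 min, was quantified by TMTpro 16plex LC-MS/MS with equalised channel sums.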

[2] = compound: C/C(=N\NC(=O)C1=CC(=CC=C1)S(=O)(=O)N2CCOCC2)/C3=C(C=CC(=C3)Cl)O
Summary of the method: as §1

[3] = compound: C1=CC(=C(C=C1Cl)C2=NC3=NC=CN=C3C(=N2)NC4=CC=NC=C4)F
Summary of the method: as §1

[4] = compound: C1=CC(=CC=C1C2=NC3=C(N2)C=C(C=C3)C(=O)N)OC4=CC=C(C=C4)Cl
Summary of the method: as §1

[5] = compound: C1=CC2=C(C=CC(=C2)/C=C\3/C(=O)NC(=NCC4=CC=CS4)S3)N=C1
Summary of the method: as §1

[6] = compound: C1=CC2=NC=CN=C2C=C1/C=C/3\C(=O)NC(=O)S3
Summary of the method: as §1

[7] = compound: C1=CC=C(C=C1)C2=NC(=C(N2)C3=CC=NC=C3)C4=CC(=C(C=C4)Cl)O
Summary of the method: as §1

[8] = compound: C1=CC=C2C(=C1)C3=NNC4=CC=CC(=C43)C2=O
Summary of the method: as §1

[9] = compound: C1CCN(C1)C(=O)NC2=CC=CC(=C2)NC3=NC=C(C(=N3)NCCC4=CN=CN4)Br
Summary of the method: as §1

[10] = compound: C1CN(CCC1(CC2=CC=C(C=C2)Cl)N)C3=NC=NC4=C3C=CN4
Summary of the method: as §1

[11] = compound: C1COCCN1CCN2C3=CC=CC=C3N=C2NC(=O)C4=CC(=CC=C4)[N+](=O)[O-] [IRAK-1-4 Inhibitor I]
Summary of the method: as §1

[12] = compound: C=CC(=O)N1CCC[C@@H](n2nc(-c3ccc(Oc4ccccc4)cc3)c3c(N)ncnc32)C1 [ibrutinib]
Summary of the method: as §1

[13] = compound: CC(=O)c1cnc2ccc(-c3cc(Cl)c(O)c(Cl)c3)nc2c1N[C@H]1CC[C@H](CN(C)C)CC1
Summary of the method: as §1

[14] = compound: CC(C)(C)Cn1c(N)nc2ccc(-c3[nH]c(C(C)(C)C)nc3-c3ccc(F)cc3)nc21 [ralimetinib]
Summary of the method: as §1

[15] = compound: CC(C)(O)CC(=O)NCCn1ccc2ncnc(Nc3ccc(Oc4cccc(C(F)(F)F)c4)c(Cl)c3)c21
Summary of the method: as §1

[16] = compound: CC(C)C1=C2N=C(C=C(N2N=C1)NCC3=CC=CC=C3)NCCCCCCN
Summary of the method: as §1

[17] = compound: CC(C)C[C@@H](C=O)NC(=O)[C@H](CC(C)C)NC(=O)[C@H](CC(C)C)NC(=O)OCc1ccccc1
Summary of the method: as §1

[18] = compound: CC(C)N(C[C@H]1O[C@@H](n2cnc3c(N)ncnc32)[C@H](O)[C@@H]1O)[C@H]1C[C@@H](CCc2nc3cc(C(C)(C)C)ccc3[nH]2)C1 [pinometostat]
Summary of the method: as §1

[19] = compound: CC1=C(C2=C(C=C1)C(=O)C3=CC=CC=C3N2CCCN)C
Summary of the method: as §1

[20] = compound: CC1=C(C(CC(=O)N1)C2=CC=C(C=C2)C(F)(F)F)C(=O)NC3=C(C=C4C(=C3)C=NN4)F
Summary of the method: as §1

Measured: log2 fold change

TP53BP1 isoform 2 (UniProt Q12888)
inactive: [1] -0.011 | [2] 0.019 | [3] -0.017 | [4] -0.001 | [5] 0.012 | [6] 0.043 | [7] -0.024 | [8] -0.078 | [9] -0.057 | [10] -0.077 | [11] -0.059 | [12] -0.046 | [13] -0.002 | [14] 0.056 | [15] -0.024 | [16] -0.089 | [17] 0.019 | [18] 0.021
active: [19] -0.337

TRAPPC13 isoform 5 (UniProt A5PLN9)
inactive: [1] 0.133 | [2] 0.047 | [3] -0.028 | [4] -0.047 | [5] 0.084 | [6] 0.021 | [7] 0 | [8] -0.038 | [9] -0.005 | [10] 0.009 | [11] -0.06 | [12] -0.047 | [13] -0.121 | [14] -0.048 | [15] -0.093 | [16] -0.014 | [17] 0.026 | [18] 0.033 | [19] -0.047

TRAPPC12 (UniProt Q8WVT3)
inactive: [1] 0.015 | [2] 0.045 | [3] 0.004 | [4] 0.003 | [5] 0.004 | [6] 0.044 | [7] 0.054 | [8] -0.01 | [9] -0.057 | [10] -0.053 | [11] -0.036 | [12] -0.024 | [13] -0.06 | [14] 0.019 | [15] -0.146 | [16] -0.068 | [17] 0.057 | [18] 0.073 | [20] 0.027 | [19] -0.046

TPM2 (UniProt P07951)
inactive: [1] -0.05 | [2] 0.009 | [3] 0.417 | [4] 0.021 | [5] -0.146 | [6] 0.025 | [7] 0.102 | [8] 0.02 | [9] -0.069 | [10] 0.101 | [11] 0.013 | [12] -0.018 | [13] 0.027 | [14] 0.059 | [15] -0.053 | [16] 0.037 | [17] -0.163 | [18] -0.1 | [19] -0.103

TNPO1 (UniProt Q92973)
active: [19] -0.231
inactive: [1] -0.032 | [2] 0.08 | [3] 0.038 | [4] 0.011 | [5] -0.006 | [6] 0.016 | [7] 0.008 | [8] -0.027 | [9] -0.001 | [10] 0 | [11] 0.01 | [12] 0.001 | [13] 0.043 | [14] -0.01 | [15] -0.029 | [16] -0.193 | [17] -0.011 | [18] -0.006

TRAPPC4 (UniProt Q9Y296)
inactive: [1] 0.002 | [2] 0.026 | [3] 0 | [4] 0.019 | [5] 0.017 | [6] 0.022 | [7] -0.022 | [8] 0.016 | [9] 0.007 | [10] 0.041 | [11] 0 | [12] -0.038 | [13] -0.066 | [14] -0.022 | [15] -0.046 | [16] 0.02 | [17] -0.023 | [18] 0.064 | [20] 0.012 | [19] 0.002

TRIM32 (UniProt Q13049)
inactive: [1] 0.007 | [2] -0.096 | [3] 0.068 | [4] 0.146 | [5] 0.142 | [6] 0.062 | [7] -0.032 | [8] -0.137 | [9] 0.075 | [10] 0.149 | [11] 0.036 | [12] 0.009 | [13] 0.043 | [14] 0.024 | [15] 0.113 | [16] 0.003 | [17] 0.027 | [18] -0.006 | [20] 0.001 | [19] -0.085

TRIP10 isoform 2 (UniProt Q15642)
inactive: [1] -0.116 | [2] -0.002 | [3] 0.112 | [4] 0.094 | [5] -0.069 | [6] 0.055 | [7] 0.326 | [8] 0.055 | [9] -0.089 | [10] 0.014 | [11] 0.09 | [12] -0.032 | [13] -0.078 | [14] 0.143 | [15] 0.004 | [16] 0.204 | [17] -0.118 | [18] -0.027 | [19] -0.01

TNFRSF8 (UniProt P28908)
inactive: [1] 0.009 | [2] 0.017 | [3] -0.015 | [4] 0.006 | [5] -0.109 | [6] 0.024 | [7] -0.062 | [8] -0.061 | [9] -0.046 | [10] 0.05 | [11] 0.056 | [12] 0.046 | [13] 0.005 | [14] -0.143 | [15] 0.016 | [17] 0.074 | [18] -0.01 | [19] -0.022
active: [16] 0.219

TRIM28 (UniProt Q13263)
inactive: [1] 0.001 | [2] 0.077 | [3] 0.041 | [4] -0.023 | [5] -0.021 | [6] 0.018 | [7] -0.023 | [8] 0.004 | [9] -0.013 | [10] -0.026 | [11] -0.008 | [12] -0.033 | [13] 0.052 | [14] -0.003 | [15] -0.035 | [16] -0.087 | [17] 0.018 | [18] -0.056 | [19] -0.152

TRAP1 (UniProt Q12931)
inactive: [1] -0.013 | [2] 0.03 | [3] 0.062 | [4] -0.02 | [5] -0.033 | [6] 0.01 | [7] -0.03 | [8] -0.024 | [9] -0.005 | [10] 0.049 | [11] 0.042 | [12] 0.011 | [13] 0.015 | [14] 0.011 | [15] -0.002 | [16] -0.007 | [17] -0.034 | [18] -0.052 | [20] 0.016 | [19] -0.011

TRAF2 (UniProt Q12933)
inactive: [1] -0.015 | [2] 0.047 | [3] 0.068 | [4] 0.005 | [5] 0.013 | [6] 0.035 | [7] 0.031 | [8] 0.004 | [9] -0.016 | [10] 0.018 | [11] 0.014 | [12] -0.008 | [13] -0.011 | [14] 0.002 | [15] -0.009 | [16] 0.063 | [17] -0.016 | [18] -0.04 | [20] -0.003 | [19] 0.02

TP53BP2 isoform 3 (UniProt Q13625)
inactive: [1] 0.017 | [2] 0.068 | [3] -0.017 | [4] -0.04 | [5] 0.012 | [6] -0.276 | [7] 0.024 | [8] 0.045 | [9] -0.007 | [10] -0.156 | [11] -0.029 | [12] 0.024 | [13] -0.213 | [14] 0.157 | [15] -0.021 | [16] -0.065 | [17] 0.069 | [18] 0.145 | [20] -0.285 | [19] 0.013

TSC2 (UniProt P49815)
inactive: [1] 0.276 | [2] -0.047 | [3] -0.104 | [4] -0.297 | [5] -0.025 | [6] -0.135 | [7] 0.06 | [8] 0.063 | [9] -0.001 | [10] 0.199 | [11] -0.045 | [12] 0.028 | [13] 0.05 | [14] 0.091 | [15] -0.001 | [16] 0.103 | [17] 0.056 | [18] 0.085 | [19] 0.105

TRMT10A (UniProt Q8TBZ6)
inactive: [1] -0.01 | [2] 0.044 | [3] 0.004 | [4] 0.031 | [5] 0.037 | [6] 0.02 | [7] -0.015 | [9] 0.038 | [10] -0.045 | [11] 0.056 | [12] -0.009 | [13] -0.065 | [14] -0.006 | [15] -0.107 | [16] -0.075 | [17] -0.01 | [18] 0.042 | [19] 0.066
active: [8] 0.271

Quoted from the results shown (two entries):
TSC2 (UniProt P49815)
inactive: [1] 0.276 | [2] -0.047 | [3] -0.104 | [4] -0.297 | [5] -0.025 | [6] -0.135 | [7] 0.06 | [8] 0.063 | [9] -0.001 | [10] 0.199 | [11] -0.045 | [12] 0.028 | [13] 0.05 | [14] 0.091 | [15] -0.001 | [16] 0.103 | [17] 0.056 | [18] 0.085 | [19] 0.105

TRMT10A (UniProt Q8TBZ6)
inactive: [1] -0.01 | [2] 0.044 | [3] 0.004 | [4] 0.031 | [5] 0.037 | [6] 0.02 | [7] -0.015 | [9] 0.038 | [10] -0.045 | [11] 0.056 | [12] -0.009 | [13] -0.065 | [14] -0.006 | [15] -0.107 | [16] -0.075 | [17] -0.01 | [18] 0.042 | [19] 0.066
active: [8] 0.271

Later entries:

TPM1 isoform 4 (UniProt P09493)
inactive: [1] 0 | [2] -0.029 | [3] 0.046 | [4] 0.015 | [5] -0.004 | [6] 0.004 | [7] -0.022 | [8] 0.029 | [9] 0.017 | [10] 0.044 | [11] 0.02 | [12] -0.017 | [13] -0.005 | [14] -0.028 | [15] 0.008 | [16] 0.065 | [17] -0.041 | [18] -0.099 | [20] 0.007 | [19] -0.006

TNRC6B (UniProt Q9UPQ9)
inactive: [1] 0.049 | [2] -0.014 | [3] -0.116 | [4] -0.031 | [5] 0.118 | [6] -0.152 | [8] -0.059 | [9] -0.065 | [10] -0.002 | [11] 0 | [12] 0.305 | [13] 0.022 | [15] 0.031 | [16] 0.084 | [18] 0.115 | [19] 0.202
